Among all 360,000 compounds or so, about 7,500 (2.1%) were called active. The shares of active, inactive and inconclusive entries below differ from those in the screen. The call rests on the fitted dose curve; in most records, active means well fitted inhibition curve with a large enough effect; inconclusive means small, poorly fitted or top-dose-only effect, or effect the other way; inactive means flat fitted curve, though single readings scatter. A potency beside an inconclusive call is a rough fit, not a confirmed value.
assay: Nrf2 qHTS screen for inhibitors; conditions: A549 ARE-Fluc reporter, luciferase luminescence, 18-24 h; series mostly up to 46 µM; further: nearly all actives have a fitted effect of over 60% in size
From the text: NIH Molecular Libraries Probe Production Network [MLPCN]
NIH Chemical Genomics Center [NCGC]
Assay Provider: Shyam Biswal, Johns Hopkins University
Nrf2 is a transcription factor that maintains cellular redox homoestasis and protects cells from xenobiotics. Nrf2 binds to the antioxidant response element (ARE) to induce gene expression of a broad spectrum of genes that encode for antioxidants. […] Finding a small molecule that act as an inhibitor of Nrf2 function would represent a novel therapeutic target that could lead to improvement in survival of patients undergoing chemo- and/or radio- therapy.
This is the Nrf2 activity measured in the luminescent read.
1. Shibata, T., et al., Genetic Alteration of Keap1 Confers Constitutive Nrf2 Activation and Resistance to Chemotherapy in Gallbladder Cancer. Gastroenterology, 2008.
2. Sjoblom, T., et al., The consensus coding sequences of human breast and colorectal cancers. Science, 2006. 314(5797): p. 268-74.
NCGC Assay Protocol Summary:
A concentration-response assay was performed with A549 ARE_Fluc cells which are suspended in 5% FBS OPTI-MEM. Five uL were dispensed into 1536-well white TC-treated plate using the Kalypsys dispenser to achieve a density of 5000 cells/well in all columns except column 1. The plate is incubated at 37deg C at 5% CO2 for 2 hours before 23 nL of compounds are added with the Kalypsys pin tool equipped with a 1,536-pin array containing 10-nL slotted pins (FP1S10, 0.457-mm diameter, 50.8 mm long; V&P Scientific). The control compounds Budesonide and Staurosporine are both added at a concentration of 2mM and Budesonide is also added as a 1:10 titration, starting at 200uM, to achieve dose-response. After an 18-24 hour incubation at 37deg C at 5% CO2, 5ul of medium is added to column 1. Afterwards 1ul of 5x of CellTiter-Fluor (Promega) is added to every well. The plate is then incubated at 37deg C at 5% CO2 for 30 minutes before they are read on the ViewLux (Perkin Elmer) for a fluorescent read Ex=405(10)/Em=525(10) for a 3 second exposure, 2x binning, and high gain. Then 3 uL of 3x BugLite is dispensed into all wells and the plate is incubated at ambient room temperature for 15 minutes. Afterwards another ViewLux read is performed using the clear filter to get a luminescent read with the settings of 40 second exposure, 2x binning, and high gain. Cytotoxicity is assessed through the first fluorescent read and then biochemical activity against Nrf2 is measured in the luminescent read.
Potency means the concentration at half of the fitted maximal effect.

With FC(F)Oc1ccc(NC(=S)NCc2cccnc2)cc1 as the compound, how does the Potency read?
The Potency was inconclusive: 9.2 µM [falling, partial curve, poor fit].

With Cc1cc(=O)[nH]c(N/N=C/C=C/c2ccccc2)n1 as the compound, how does the Potency read?
The Potency was “inactive”.

Which Potency does the source give for O=C(Nc1ccccn1)c1ccc2ccccc2c1O here?
The Potency was inconclusive: 8.2 µM [activator, partial curve].

Which Potency does the source give for Cc1ccsc1/C=N/N=C/c1sccc1C here?
The Potency was inconclusive: 4.61 µM [activator, partial curve].

Which Potency does the source give for CCCC/C(O)=C1\C(=O)CCCC1=NCCc1c(C)[nH]c2ccc(OC)cc12 here?
The Potency was inconclusive: 29.1 µM [falling, single point].

For Cn1c2cc(Br)sc2c2cnn(Cc3ccccc3F)c(=O)c21, which Potency is on record?
Its Potency is “inactive”.

With O=C(C1COc2ccccc2O1)N1CCCC1 (stereo not given) as the compound, how does the Potency read?
The Potency was “inactive”.

With C#CCOc1ccc(/C=C2\SC(=S)N(Cc3cccnc3)C2=O)cc1 as the compound, how does the Potency read?
The Potency was “inactive”.

Which Potency does the source give for Cc1ccc(NS(=O)(=O)c2cc3c(cc2Cl)NC(=O)CO3)cc1C here?
The Potency was “inactive”.

Which Potency does the source give for COc1ccccc1NC(=O)COC(=O)c1cc2ccccc2cc1O here?
Its Potency is “inactive”.

With COc1ccc(NC(=O)Nc2ncccc2C)cc1 as the compound, how does the Potency read?
Its Potency is inconclusive: 20.6 µM [activator, single point].

With Cc1ccc(N(C)C(=O)CCS(=O)(=O)c2cc3c(cc2Cl)NC(=O)CO3)cc1 as the compound, how does the Potency read?
Its Potency is inconclusive: 29.1 µM [falling, single point].

For C(=N\Nc1ccccc1)/c1ccc(N2CCOCC2)cc1, which Potency is on record?
The Potency was inconclusive: 1.84 µM [activator, full curve].

With CCN(CC)c1ccc2cc(-c3nc(-c4ccccc4F)no3)c(=O)oc2c1 as the compound, how does the Potency read?
The Potency was inconclusive: 2.31 µM [activator, full curve].

For Cn1c(SCc2cccc(F)c2)nnc1-c1cnccn1, which Potency is on record?
Its Potency is inconclusive: 29.1 µM [activator, single point].

Which Potency does the source give for CN(CCCC1CCCC1)C(=O)CC1C(=O)NCCN1Cc1cccc(F)c1F (stereo not given) here?
The Potency was “inactive”.

With COC(=O)c1cc(S(=O)(=O)N2CCOCC2)ccc1Sc1ccccc1N as the compound, how does the Potency read?
Its Potency is inconclusive: 23.1 µM [falling, single point].

With COCCn1c(SCC(=O)c2c[nH]c3ccccc23)nc2cc(C(=O)NC(C)C)ccc2c1=O as the compound, how does the Potency read?
The Potency was inconclusive: 10.3 µM [falling, partial curve, poor fit].

Which Potency does the source give for COc1ccc2c(c1)c1nc3n(c(=O)c1n2CC(=O)Nc1ccccc1)CCCS3 here?
Its Potency is “inactive”.

For COc1ccc(OC)c(NC(=O)COC(=O)/C=C/c2ccc(Cl)cc2)c1, which Potency is on record?
The Potency was inconclusive: 5.17 µM [activator, single point].

Which Potency does the source give for O=S(=O)(Nc1ccc(F)cc1F)c1ccc(-n2cccn2)cc1 here?
Its Potency is inconclusive: 18.4 µM [falling, partial curve, poor fit].

With CCOc1ccc(-c2nnc(SCC(=O)c3ccc(Br)cc3)n2-c2ccccc2)cc1 as the compound, how does the Potency read?
The Potency was inconclusive: 2.91 µM [falling, full curve, poor fit].

For CN1/C(=C/C(=O)C2CCC2)Sc2ccccc21, which Potency is on record?
Its Potency is inconclusive: 2.59 µM [activator, full curve, poor fit].

With NC(=O)C1(N2CCCCC2)CCN(C(=S)Nc2ccc(Cl)cc2)CC1 as the compound, how does the Potency read?
Its Potency is inconclusive: 3.66 µM [falling, single point].

With COc1ccccc1C(=O)NC(=Nc1nc2ccccc2o1)NC(=O)c1ccccc1OC as the compound, how does the Potency read?
Its Potency is inconclusive: 23.1 µM [activator, partial curve, poor fit].

With Cc1cc(C)n(C(=O)COc2ccc(Cl)cc2Cl)n1 as the compound, how does the Potency read?
Its Potency is inconclusive: 20.6 µM [falling, single point].

For CCc1ccc(NC(=O)Nc2nnc(N(C)C3CCCCC3)s2)cc1, which Potency is on record?
The Potency was “inactive”.

For CCOC(=O)N1CCN(C(=O)CSc2nc3c(cnn3-c3ccccc3)c(=O)[nH]2)CC1, which Potency is on record?
Its Potency is inconclusive: 2.59 µM [falling, partial curve, poor fit].

With O=C(NNC(=O)c1ccc(Br)s1)c1cccc(Cl)c1 as the compound, how does the Potency read?
The Potency was “inactive”.

For CCC(C)NC(=O)CSc1nc2cc3c(cc2c(=O)n1Cc1ccc(C(=O)NCCc2ccc(OC)c(OC)c2)cc1)OCO3 (stereo not given), which Potency is on record?
The Potency was “inactive”.

With COc1cc(/C=N/NC(=O)CCn2cnc(-c3ccccc3)c2-c2ccccc2)ccc1O as the compound, how does the Potency read?
The Potency was inconclusive: 29.1 µM [falling, single point].

With O=C(CNC(=O)c1ccccc1)OC(C(=O)Nc1ccc2c(c1)OCO2)c1ccccc1 (stereo not given) as the compound, how does the Potency read?
Its Potency is “inactive”.

For Cc1nn(Cc2ccc(Cl)cc2Cl)c(C)c1NC(=O)NC12CC3CC(CC(C3)C1)C2, which Potency is on record?
Its Potency is active: 20.6 µM.

For CCc1ccc(C(=O)Cc2cc3cccc(OC)c3oc2=O)cc1, which Potency is on record?
Its Potency is “inactive”.

Which Potency does the source give for CCN(CC)c1ccc(-n2cc3c(=O)n(C)c(=O)n(C)c3c2)cc1 here?
Its Potency is inconclusive: 20.6 µM [falling, single point].

With O=C1C(Cl)=C(NCC2CCCO2)C(=O)N1CCc1ccccc1 (stereo not given) as the compound, how does the Potency read?
The Potency was inconclusive: 4.11 µM [activator, full curve].

With CC(=O)c1cc(-c2ccccc2)n(CC(=O)NCc2cccs2)c1C as the compound, how does the Potency read?
Its Potency is inconclusive: 8.2 µM [falling, partial curve, poor fit].

For Cc1cccc(N2CCN(C(=O)C3CCN(c4ncnc5c4nc4n5CCCCC4)CC3)CC2)c1C, which Potency is on record?
Its Potency is active: 20.6 µM.

With CSCCC(NC(=O)/C(=C/c1ccco1)NC(=O)c1ccco1)C(=O)O (stereo not given) as the compound, how does the Potency read?
The Potency was “inactive”.

Which Potency does the source give for COc1c(C(=O)Nc2ccccc2N2CCOCC2)cc2ccccc2c1Br here?
Its Potency is inconclusive: 29.1 µM [falling, single point].

Which Potency does the source give for O=C(O)C1C2CCC(O2)C1C(=O)Nc1ccc(Br)cc1F (stereo not given) here?
Its Potency is “inactive”.

Which Potency does the source give for Cc1occc1-c1nnc(SCC(=O)N2CCOCC2)n1CC(C)C here?
The Potency was inconclusive: 32.6 µM [activator, partial curve, poor fit].

With O=[N+]([O-])c1ccc(C(=S)N2CCN(c3ccc(F)cc3)CC2)cc1 as the compound, how does the Potency read?
The Potency was active: 18.4 µM.

For O=C(Nc1ccc(Cl)cc1F)c1ccccc1Br, which Potency is on record?
The Potency was inconclusive: 16.4 µM [activator, partial curve].

For CCN(CC(=O)Nc1ccc2c(c1)OCCO2)S(=O)(=O)c1ccccc1, which Potency is on record?
The Potency was inconclusive: 29.1 µM [activator, single point].

Which Potency does the source give for Cc1cc(NC(=O)c2ccco2)no1 here?
The Potency was inconclusive: 5.8 µM [activator, partial curve, poor fit].

With Cc1ccc(NC(=O)CN2C(=O)COc3ccc(S(=O)(=O)Nc4ccccc4)cc32)c(C)c1 as the compound, how does the Potency read?
The Potency was inconclusive: 7.31 µM [activator, partial curve].

Which Potency does the source give for C=CC(=O)N1c2ccccc2Sc2ccc(NC(=O)OCC)cc21 here?
Its Potency is inconclusive: 25.9 µM [falling, single point].

Which Potency does the source give for CC1CCc2sc(-c3n[nH]c(=S)o3)cc2C1 (stereo not given) here?
Its Potency is inconclusive: 6.51 µM [activator, single point].

Which Potency does the source give for Cc1cc(C)c(NC(=O)CSc2nc3ccncc3[nH]2)c(C)c1 here?
Its Potency is “inactive”.

Which Potency does the source give for Cc1cc2c(NCc3ccccc3)ncnc2s1 here?
The Potency was inconclusive: 18.4 µM [falling, partial curve].

For CCCCN(C(=O)/C=C/c1ccco1)c1c(N)n(CCC)c(=O)[nH]c1=O, which Potency is on record?
Its Potency is “inactive”.

For Clc1ccc(-c2noc(CSc3nnc(Cc4cccs4)n3-c3ccccc3)n2)cc1, which Potency is on record?
The Potency was active: 16.4 µM.

For CCC(CC)COC(=O)C1=C(C)NC(=O)NC1c1ccc(N(C)C)cc1 (stereo not given), which Potency is on record?
The Potency was inconclusive: 20.6 µM [falling, single point].

Which Potency does the source give for COc1cc(C(=O)N(C)CC2CCN(CCc3cccc(C(F)(F)F)c3)CC2)ccc1C here?
Its Potency is inconclusive: 25.9 µM [falling, single point].

Which Potency does the source give for COc1ccc(-c2ccc([C@H]3[C@@H]4C=CCC[C@@]4(C)C(=O)N3Cc3ccccc3)c(F)c2)cc1OC here?
The Potency was active: 20.6 µM.

Which Potency does the source give for COc1ccc(NC(=O)C(C)Sc2ccccc2)cc1 (stereo not given) here?
Its Potency is inconclusive: 20.6 µM [activator, single point].

For CN(NC(=O)c1ccc(Cl)cc1)c1nc(-c2ccccc2)nnc1C(F)(F)F, which Potency is on record?
The Potency was active: 23.1 µM.

Which Potency does the source give for O=C(CSc1nnc(Cc2ccccc2)n1Cc1ccco1)NC12CC3CC(CC(C3)C1)C2 here?
The Potency was active: 25.9 µM.

Which Potency does the source give for O=C(OCc1ccccc1)N(CCF)c1cn(Cc2ccccc2)c(=O)n(Cc2ccccc2)c1=O here?
The Potency was inconclusive: 7.31 µM [falling, partial curve, poor fit].

For O=C(NCCC1=CCCCC1)C1CCCN(S(=O)(=O)c2ccccc2)C1 (stereo not given), which Potency is on record?
Its Potency is inconclusive: 1.16 µM [falling, full curve, poor fit].

For Cc1ccc(OCC(=O)Nc2ccc3nc(SCCOc4ccccc4)sc3c2)cc1, which Potency is on record?
Its Potency is inconclusive: 2.06 µM [falling, partial curve, poor fit].

For COc1cccc(C(=O)N2CCN(Cc3cc(Br)ccc3OC)CC2)c1, which Potency is on record?
Its Potency is inconclusive: 32.6 µM [falling, partial curve, poor fit].

For CC1(C)CC(=O)C2=C(C1)Oc1nc3ccccc3cc1C2C(C#N)C#N (stereo not given), which Potency is on record?
Its Potency is inconclusive: 25.9 µM [falling, single point].

With Cc1nc(SCc2nc3ccc(C(F)(F)F)cc3[nH]2)c2oc3ccccc3c2n1 as the compound, how does the Potency read?
The Potency was inconclusive: 23.1 µM [falling, single point].

Which Potency does the source give for COc1ccc(CCNC(=O)c2nn(C)c3c2CS(=O)(=O)c2ccccc2-3)c(OC)c1 here?
The Potency was active: 23.1 µM.

With O=C1C(=O)c2ccccc2C([O-])=C1[n+]1ccccc1 as the compound, how does the Potency read?
The Potency was inconclusive: 32.6 µM [falling, partial curve, poor fit].

With Cc1cccc(NC(=O)C2CCCN(S(=O)(=O)c3ccc(Br)s3)C2)c1 (stereo not given) as the compound, how does the Potency read?
The Potency was “inactive”.

Which Potency does the source give for O=C1CC(C(=O)N2CCCc3ccccc32)CN1c1ccc(F)cc1 (stereo not given) here?
The Potency was inconclusive: 11.6 µM [activator, partial curve, poor fit].

With CC1(C)CC(=O)C(C=Nc2ccc(C(=O)c3ccccc3)cc2N=CC2=C(O)CC(C)(C)CC2=O)=C(O)C1 as the compound, how does the Potency read?
The Potency was inconclusive: 29.1 µM [activator, single point].

From PubChem BioAssay AID504444 (National Center for Advancing Translational Sciences (NCATS), 2011)
